# Data: the supplement of paper PMC8728848
# This is one part of the list.
# Legend:
# Test in all cases: glycan array binding signal (z-score within array); higher = stronger binding
# Details in all cases: glycan notation: IUPAC condensed, linker removed
# [1] = target: Gal(b1-3)[Neu5Ac(a2-6)]GalNAc
# Method in brief: (§1)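 Negative Z-scores can be read as non-binding. The Z-score is calculated within each array and then averaged across arrays of one protein sequence at different concentrations or buffers and across linkers. Arrays, 3228 in all, were curated from the Consortium for Functional Glycomics database and kept only where the protein sequence was available.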
# [2] = target: Gal(b1-3)[Neu5Ac(a2-6)]GlcNAc(b1-6)Gal(b1-4)Glc
# Method in brief: as §1
# [3] = target: Gal(b1-3)[Neu5Ac(b2-6)]GalNAc
# Method in brief: as §1
# [4] = target: Gal(b1-4)GalNAc(a1-3)[Fuc(a1-2)]Gal(b1-4)GlcNAc
# Method in brief: as §1
# [5] = target: Gal(b1-4)GalNAc(b1-3)[Fuc(a1-2)]Gal(b1-4)GlcNAc
# Method in brief: as §1
# Gal(b1-4)Glc = target: Gal(b1-4)Glc
# Method in brief: as §1
# Gal(b1-4)Glc6S = target: Gal(b1-4)Glc6S
# Method in brief: as §1
# Gal(b1-4)GlcNAc = target: Gal(b1-4)GlcNAc
# Method in brief: as §1
# [6] = target: Gal(b1-4)GlcNAc(a1-6)Gal(b1-4)GlcNAc
# Method in brief: as §1
# [7] = target: Gal(b1-4)GlcNAc(b1-2)Man(a1-3)Man(b1-4)GlcNAc(b1-4)GlcNAc
# Method in brief: as §1
# [8] = target: Gal(b1-4)GlcNAc(b1-2)Man(a1-3)[Gal(b1-4)GlcNAc(b1-2)Man(a1-6)]Man(b1-4)GlcNAc(b1-4)GlcNAc
# Method in brief: as §1
# [9] = target: Gal(b1-4)GlcNAc(b1-2)Man(a1-3)[Gal(b1-4)GlcNAc(b1-2)Man(a1-6)]Man(b1-4)GlcNAc(b1-4)[Fuc(a1-6)]GlcNAc
# Method in brief: as §1
# [10] = target: Gal(b1-4)GlcNAc(b1-2)Man(a1-3)[GlcNAc(b1-2)Man(a1-6)]Man(b1-4)GlcNAc(b1-4)GlcNAc
# Method in brief: as §1
# [11] = target: Gal(b1-4)GlcNAc(b1-2)Man(a1-3)[Man(a1-6)]Man(b1-4)GlcNAc(b1-4)GlcNAc
# Method in brief: as §1
# [12] = target: Gal(b1-4)GlcNAc(b1-2)Man(a1-6)Man(b1-4)GlcNAc(b1-4)GlcNAc
# Method in brief: as §1
# [13] = target: Gal(b1-4)GlcNAc(b1-2)Man(a1-6)[GlcNAc(b1-2)Man(a1-3)]Man(b1-4)GlcNAc(b1-4)GlcNAc
# Method in brief: as §1
# [14] = target: Gal(b1-4)GlcNAc(b1-2)Man(a1-6)[Man(a1-3)]Man(b1-4)GlcNAc(b1-4)GlcNAc
# Method in brief: as §1
# [15] = target: Gal(b1-4)GlcNAc(b1-2)[Gal(b1-4)GlcNAc(b1-4)]Man(a1-3)[Gal(b1-4)GlcNAc(b1-2)Man(a1-6)]Man(b1-4)GlcNAc(b1-4)GlcNAc
# Method in brief: as §1
# [16] = target: Gal(b1-4)GlcNAc(b1-2)[Gal(b1-4)GlcNAc(b1-4)]Man(a1-3)[Gal(b1-4)GlcNAc(b1-2)[Gal(b1-4)GlcNAc(b1-6)]Man(a1-6)]Man(b1-4)GlcNAc(b1-4)GlcNAc
# Method in brief: as §1
# [17] = target: Gal(b1-4)GlcNAc(b1-3)Gal(b1-3)GlcNAc
# Method in brief: as §1
# [18] = target: Gal(b1-4)GlcNAc(b1-3)Gal(b1-4)Glc
# Method in brief: as §1
# [19] = target: Gal(b1-4)GlcNAc(b1-3)Gal(b1-4)GlcNAc
# Method in brief: as §1
# [20] = target: Gal(b1-4)GlcNAc(b1-3)Gal(b1-4)GlcNAc(b1-3)Gal(b1-4)GlcNAc
# Method in brief: as §1
# [21] = target: Gal(b1-4)GlcNAc(b1-3)Gal(b1-4)[Fuc(a1-3)]GlcNAc(b1-3)Gal(b1-4)[Fuc(a1-3)]GlcNAc
# Method in brief: as §1
# [22] = target: Gal(b1-4)GlcNAc(b1-3)GalNAc
# Method in brief: as §1
# [23] = target: Gal(b1-4)GlcNAc(b1-3)[Gal(b1-4)GlcNAc(b1-6)]Gal(b1-4)GlcNAc
# Method in brief: as §1
# [24] = target: Gal(b1-4)GlcNAc(b1-3)[Gal(b1-4)GlcNAc(b1-6)]GalNAc
# Method in brief: as §1
# [25] = target: Gal(b1-4)GlcNAc(b1-3)[GlcNAc(b1-6)]Gal(b1-4)GlcNAc
# Method in brief: as §1
# [26] = target: Gal(b1-4)GlcNAc(b1-6)Gal(b1-4)GlcNAc
# Method in brief: as §1
# [27] = target: Gal(b1-4)GlcNAc(b1-6)GalNAc
# Method in brief: as §1
# [28] = target: Gal(b1-4)GlcNAc(b1-6)[Gal(b1-3)]GalNAc
# Method in brief: as §1
# Gal3S(b1-3)GalNAc = target: Gal3S(b1-3)GalNAc
# Method in brief: as §1
# Gal3S(b1-3)GlcNAc = target: Gal3S(b1-3)GlcNAc
# Method in brief: as §1
# [29] = target: Gal3S(b1-3)[Fuc(a1-4)]GlcNAc
# Method in brief: as §1
# Gal3S(b1-4)Glc = target: Gal3S(b1-4)Glc
# Method in brief: as §1
# Gal3S(b1-4)Glc6S = target: Gal3S(b1-4)Glc6S
# Method in brief: as §1
# Gal3S(b1-4)GlcNAc = target: Gal3S(b1-4)GlcNAc
# Method in brief: as §1
# Gal3S(b1-4)GlcNAc6S = target: Gal3S(b1-4)GlcNAc6S
# Method in brief: as §1
binder,measurement,setting,value
"SAG1 (Toxoplasma gondii), P13664 (protein) MSVSLHHFIISSGFLTSMFPKAVRRAVTAGVFAAPTLMSFLRCGVMASDPPLVANQVVTCPDKKSTAAVILTPTENHFTLKCPKTALTEPPTLAYSPNRQICPAGTTSSCTSKAVTLSSLIPEAEDSWWTGDSASLDTAGIKLTVPIEKFPVTTQTFVVGCIKGDDAQSCMVTVTVQARASSVVNNVARCSYGADSTLGPVKLSAEGPTTMTLVCGKDGVKVPQDNNQYCSGTTLTGCNEKSFKDILPKLTENPWQGNASSDKGATLTIKKEAFPAESKSVIIGCTGGSPEKHHCTVKLEFAGAAGSAKSAAGTASHVSIFAMVIGLIGSIAACVA",glycan array binding signal (z-score),[1],-0.742
same,glycan array binding signal (z-score),[2],-0.806
same,glycan array binding signal (z-score),[3],-0.025
same,glycan array binding signal (z-score),[4],-0.299
same,glycan array binding signal (z-score),[5],0.035
same,glycan array binding signal (z-score),Gal(b1-4)Glc,-0.239
same,glycan array binding signal (z-score),Gal(b1-4)Glc6S,-0.242
same,glycan array binding signal (z-score),Gal(b1-4)GlcNAc,-0.622
same,glycan array binding signal (z-score),[6],-0.386
same,glycan array binding signal (z-score),[7],-0.57
same,glycan array binding signal (z-score),[8],-0.331
same,glycan array binding signal (z-score),[9],0.764
same,glycan array binding signal (z-score),[10],0.426
same,glycan array binding signal (z-score),[11],0.531
same,glycan array binding signal (z-score),[12],-0.778
same,glycan array binding signal (z-score),[13],0.184
same,glycan array binding signal (z-score),[14],0.553
same,glycan array binding signal (z-score),[15],0.037
same,glycan array binding signal (z-score),[16],0.028
same,glycan array binding signal (z-score),[17],-0.473
same,glycan array binding signal (z-score),[18],-0.182
same,glycan array binding signal (z-score),[19],-0.435
same,glycan array binding signal (z-score),[20],1.25
same,glycan array binding signal (z-score),[21],0.117
same,glycan array binding signal (z-score),[22],0.77
same,glycan array binding signal (z-score),[23],-0.797
same,glycan array binding signal (z-score),[24],-0.662
same,glycan array binding signal (z-score),[25],-0.296
same,glycan array binding signal (z-score),[26],-0.985
same,glycan array binding signal (z-score),[27],0.63
same,glycan array binding signal (z-score),[28],-0.052
same,glycan array binding signal (z-score),Gal3S(b1-3)GalNAc,-0.961
same,glycan array binding signal (z-score),Gal3S(b1-3)GlcNAc,-0.518
same,glycan array binding signal (z-score),[29],7.52
same,glycan array binding signal (z-score),Gal3S(b1-4)Glc,0.38
same,glycan array binding signal (z-score),Gal3S(b1-4)Glc6S,0.059
same,glycan array binding signal (z-score),Gal3S(b1-4)GlcNAc,-0.166
same,glycan array binding signal (z-score),Gal3S(b1-4)GlcNAc6S,0.782

# Retrieved one by one from the entries so far, 2 records:
binder,measurement,setting,value
"SAG1 (Toxoplasma gondii), P13664 (protein) MSVSLHHFIISSGFLTSMFPKAVRRAVTAGVFAAPTLMSFLRCGVMASDPPLVANQVVTCPDKKSTAAVILTPTENHFTLKCPKTALTEPPTLAYSPNRQICPAGTTSSCTSKAVTLSSLIPEAEDSWWTGDSASLDTAGIKLTVPIEKFPVTTQTFVVGCIKGDDAQSCMVTVTVQARASSVVNNVARCSYGADSTLGPVKLSAEGPTTMTLVCGKDGVKVPQDNNQYCSGTTLTGCNEKSFKDILPKLTENPWQGNASSDKGATLTIKKEAFPAESKSVIIGCTGGSPEKHHCTVKLEFAGAAGSAKSAAGTASHVSIFAMVIGLIGSIAACVA",glycan array binding signal (z-score),[1],-0.742
same,glycan array binding signal (z-score),Gal(b1-4)GlcNAc,-0.622
